Here are results for 29 targets from the supplement of paper PMC12819154, “High-throughput peptide-centric local stability assay extends protein–ligand identification to membrane proteins, tissues and bacteria” (Nature Structural & Molecular Biology, 2025).

Protein sequences, listed by entry. Tags and fused reporters are not part of them. Lines headed by an entry give the natural chain unless they say otherwise; changes in a name come on top.
UniProt P0DJ93: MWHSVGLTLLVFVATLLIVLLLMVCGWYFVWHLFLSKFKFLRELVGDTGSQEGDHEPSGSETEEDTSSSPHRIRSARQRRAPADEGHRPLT
UniProt P10074: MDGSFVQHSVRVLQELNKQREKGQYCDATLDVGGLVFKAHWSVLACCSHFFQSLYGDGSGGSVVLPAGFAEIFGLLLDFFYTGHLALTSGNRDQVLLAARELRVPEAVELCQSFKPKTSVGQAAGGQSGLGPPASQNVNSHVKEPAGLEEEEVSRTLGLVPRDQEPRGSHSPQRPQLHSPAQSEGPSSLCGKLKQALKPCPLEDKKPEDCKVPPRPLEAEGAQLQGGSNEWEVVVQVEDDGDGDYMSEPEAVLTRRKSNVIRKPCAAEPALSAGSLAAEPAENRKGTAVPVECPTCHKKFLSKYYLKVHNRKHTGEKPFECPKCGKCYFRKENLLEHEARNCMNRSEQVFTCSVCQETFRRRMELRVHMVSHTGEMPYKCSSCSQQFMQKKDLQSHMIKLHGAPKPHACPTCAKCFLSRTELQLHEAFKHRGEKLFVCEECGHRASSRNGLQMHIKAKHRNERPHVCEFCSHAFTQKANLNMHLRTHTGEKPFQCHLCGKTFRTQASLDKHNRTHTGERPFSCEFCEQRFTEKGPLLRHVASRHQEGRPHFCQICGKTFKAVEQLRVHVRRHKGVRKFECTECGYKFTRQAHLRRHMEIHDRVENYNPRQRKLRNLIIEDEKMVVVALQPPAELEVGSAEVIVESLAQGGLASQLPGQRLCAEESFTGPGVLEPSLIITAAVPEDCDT
UniProt P02461, whole entry: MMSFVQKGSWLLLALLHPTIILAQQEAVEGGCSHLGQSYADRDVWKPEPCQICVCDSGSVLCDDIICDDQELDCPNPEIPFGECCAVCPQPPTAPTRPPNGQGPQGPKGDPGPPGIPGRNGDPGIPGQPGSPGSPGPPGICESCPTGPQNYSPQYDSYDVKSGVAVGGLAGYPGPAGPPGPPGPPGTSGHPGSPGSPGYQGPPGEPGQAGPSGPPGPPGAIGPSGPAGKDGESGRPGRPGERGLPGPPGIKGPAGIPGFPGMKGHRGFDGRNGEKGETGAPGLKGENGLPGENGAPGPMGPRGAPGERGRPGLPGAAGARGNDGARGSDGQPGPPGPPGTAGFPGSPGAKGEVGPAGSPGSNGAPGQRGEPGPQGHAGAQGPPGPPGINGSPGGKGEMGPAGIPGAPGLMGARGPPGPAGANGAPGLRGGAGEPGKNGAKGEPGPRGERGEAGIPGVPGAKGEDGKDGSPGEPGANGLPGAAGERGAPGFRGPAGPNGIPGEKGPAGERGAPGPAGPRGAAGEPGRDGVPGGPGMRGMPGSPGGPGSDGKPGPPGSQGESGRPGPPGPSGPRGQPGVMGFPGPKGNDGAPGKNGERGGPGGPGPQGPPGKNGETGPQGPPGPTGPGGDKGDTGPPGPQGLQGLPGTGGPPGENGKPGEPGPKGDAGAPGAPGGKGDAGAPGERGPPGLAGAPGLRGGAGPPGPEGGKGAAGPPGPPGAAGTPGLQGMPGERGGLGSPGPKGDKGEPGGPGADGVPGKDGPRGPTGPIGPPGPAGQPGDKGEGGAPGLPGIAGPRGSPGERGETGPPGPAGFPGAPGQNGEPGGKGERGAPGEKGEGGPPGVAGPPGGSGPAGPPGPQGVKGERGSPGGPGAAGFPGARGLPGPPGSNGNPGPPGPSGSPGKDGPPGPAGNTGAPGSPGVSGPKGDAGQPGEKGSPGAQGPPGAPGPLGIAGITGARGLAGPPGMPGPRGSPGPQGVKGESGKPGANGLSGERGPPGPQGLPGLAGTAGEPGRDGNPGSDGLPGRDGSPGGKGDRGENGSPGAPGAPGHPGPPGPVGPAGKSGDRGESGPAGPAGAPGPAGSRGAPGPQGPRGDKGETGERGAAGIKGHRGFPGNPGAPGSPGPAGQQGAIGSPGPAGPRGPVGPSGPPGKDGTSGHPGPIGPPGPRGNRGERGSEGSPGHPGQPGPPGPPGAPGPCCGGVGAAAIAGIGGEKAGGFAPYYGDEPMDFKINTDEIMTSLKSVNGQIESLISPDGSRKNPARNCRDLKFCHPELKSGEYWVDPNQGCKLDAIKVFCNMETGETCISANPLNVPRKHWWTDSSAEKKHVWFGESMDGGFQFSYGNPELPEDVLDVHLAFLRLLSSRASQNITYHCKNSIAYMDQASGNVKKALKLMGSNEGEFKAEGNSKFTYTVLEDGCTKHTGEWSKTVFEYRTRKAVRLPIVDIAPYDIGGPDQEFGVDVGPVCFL
UniProt P0CW24: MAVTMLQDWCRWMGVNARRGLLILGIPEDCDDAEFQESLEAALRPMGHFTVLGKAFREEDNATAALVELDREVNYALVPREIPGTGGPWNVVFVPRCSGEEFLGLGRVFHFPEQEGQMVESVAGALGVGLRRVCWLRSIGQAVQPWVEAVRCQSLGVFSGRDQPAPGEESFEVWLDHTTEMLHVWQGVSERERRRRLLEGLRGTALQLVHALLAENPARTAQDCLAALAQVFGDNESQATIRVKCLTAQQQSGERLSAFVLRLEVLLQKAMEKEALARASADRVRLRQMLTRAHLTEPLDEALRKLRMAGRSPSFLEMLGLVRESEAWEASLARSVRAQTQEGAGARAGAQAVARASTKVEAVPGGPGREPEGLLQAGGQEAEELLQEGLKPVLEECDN
UniProt P07339: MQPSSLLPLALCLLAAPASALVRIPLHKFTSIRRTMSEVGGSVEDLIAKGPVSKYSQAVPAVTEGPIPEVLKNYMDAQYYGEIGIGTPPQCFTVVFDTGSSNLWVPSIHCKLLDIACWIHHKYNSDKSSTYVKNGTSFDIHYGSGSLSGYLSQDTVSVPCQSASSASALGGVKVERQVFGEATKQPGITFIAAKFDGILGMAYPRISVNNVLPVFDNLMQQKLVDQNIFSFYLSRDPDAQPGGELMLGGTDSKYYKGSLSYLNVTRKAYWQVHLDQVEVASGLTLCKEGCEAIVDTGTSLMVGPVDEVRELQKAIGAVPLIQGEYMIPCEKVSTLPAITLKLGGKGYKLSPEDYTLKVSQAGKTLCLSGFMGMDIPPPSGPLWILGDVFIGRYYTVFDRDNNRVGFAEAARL
UniProt P11310: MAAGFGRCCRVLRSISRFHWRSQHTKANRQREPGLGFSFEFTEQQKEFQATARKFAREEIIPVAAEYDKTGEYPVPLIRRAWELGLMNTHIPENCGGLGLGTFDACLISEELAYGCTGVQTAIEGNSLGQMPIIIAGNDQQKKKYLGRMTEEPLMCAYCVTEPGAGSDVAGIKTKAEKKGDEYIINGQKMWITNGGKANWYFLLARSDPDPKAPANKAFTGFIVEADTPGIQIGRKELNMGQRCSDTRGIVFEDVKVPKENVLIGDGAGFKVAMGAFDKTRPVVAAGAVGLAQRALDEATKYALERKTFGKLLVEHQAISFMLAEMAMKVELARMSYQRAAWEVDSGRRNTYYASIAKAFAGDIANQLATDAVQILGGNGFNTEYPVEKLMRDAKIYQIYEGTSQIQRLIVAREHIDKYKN
UniProt P12004, whole entry: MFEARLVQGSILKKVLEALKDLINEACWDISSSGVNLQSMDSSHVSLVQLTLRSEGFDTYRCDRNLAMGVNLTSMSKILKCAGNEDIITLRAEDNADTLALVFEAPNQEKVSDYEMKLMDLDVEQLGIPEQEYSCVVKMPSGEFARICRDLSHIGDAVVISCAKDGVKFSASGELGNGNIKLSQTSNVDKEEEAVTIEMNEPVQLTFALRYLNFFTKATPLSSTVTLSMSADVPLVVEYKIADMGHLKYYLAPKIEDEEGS
UniProt P08651, whole entry: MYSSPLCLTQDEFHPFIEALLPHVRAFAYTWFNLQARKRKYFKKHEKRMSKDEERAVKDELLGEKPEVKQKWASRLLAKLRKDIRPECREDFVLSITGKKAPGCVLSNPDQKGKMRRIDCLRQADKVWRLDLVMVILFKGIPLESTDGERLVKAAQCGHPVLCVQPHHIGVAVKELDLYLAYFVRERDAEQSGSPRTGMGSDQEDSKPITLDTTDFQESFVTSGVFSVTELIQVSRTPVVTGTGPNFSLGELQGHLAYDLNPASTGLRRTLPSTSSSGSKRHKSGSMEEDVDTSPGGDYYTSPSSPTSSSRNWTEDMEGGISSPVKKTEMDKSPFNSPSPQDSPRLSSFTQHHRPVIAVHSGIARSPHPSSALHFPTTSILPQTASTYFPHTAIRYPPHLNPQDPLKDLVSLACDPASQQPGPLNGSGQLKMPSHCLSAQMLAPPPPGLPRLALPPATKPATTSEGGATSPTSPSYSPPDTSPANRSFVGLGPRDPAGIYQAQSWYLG
UniProt P0C7P0: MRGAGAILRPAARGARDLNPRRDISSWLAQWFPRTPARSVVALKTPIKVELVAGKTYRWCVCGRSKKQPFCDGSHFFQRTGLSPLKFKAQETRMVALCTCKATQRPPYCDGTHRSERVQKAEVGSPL
UniProt P0DMU8: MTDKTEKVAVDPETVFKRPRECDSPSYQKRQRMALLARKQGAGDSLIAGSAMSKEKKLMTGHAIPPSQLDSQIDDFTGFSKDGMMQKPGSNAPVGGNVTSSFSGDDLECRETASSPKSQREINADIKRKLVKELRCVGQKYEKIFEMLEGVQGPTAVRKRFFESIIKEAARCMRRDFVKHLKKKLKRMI
UniProt P02545: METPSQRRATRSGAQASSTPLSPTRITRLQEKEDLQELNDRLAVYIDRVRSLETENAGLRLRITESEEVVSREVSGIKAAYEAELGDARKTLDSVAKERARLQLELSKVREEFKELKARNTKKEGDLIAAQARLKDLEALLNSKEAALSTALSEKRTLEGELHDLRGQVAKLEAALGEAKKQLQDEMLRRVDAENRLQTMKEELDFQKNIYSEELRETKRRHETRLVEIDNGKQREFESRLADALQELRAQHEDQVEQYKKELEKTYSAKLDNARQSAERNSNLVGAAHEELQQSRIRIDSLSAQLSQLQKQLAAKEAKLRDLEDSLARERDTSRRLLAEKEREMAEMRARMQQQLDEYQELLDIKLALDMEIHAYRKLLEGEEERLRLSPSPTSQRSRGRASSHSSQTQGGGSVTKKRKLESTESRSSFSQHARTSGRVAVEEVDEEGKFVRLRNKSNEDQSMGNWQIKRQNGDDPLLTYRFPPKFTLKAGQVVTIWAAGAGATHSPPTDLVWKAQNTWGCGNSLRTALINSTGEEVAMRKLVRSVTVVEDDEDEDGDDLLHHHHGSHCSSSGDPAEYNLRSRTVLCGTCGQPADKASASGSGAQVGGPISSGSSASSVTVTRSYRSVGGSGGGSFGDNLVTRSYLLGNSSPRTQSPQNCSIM
UniProt P04733: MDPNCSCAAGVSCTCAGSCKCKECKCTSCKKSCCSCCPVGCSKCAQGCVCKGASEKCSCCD
UniProt P04731: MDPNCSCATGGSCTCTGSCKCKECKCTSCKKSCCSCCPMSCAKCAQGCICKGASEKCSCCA
UniProt P13056: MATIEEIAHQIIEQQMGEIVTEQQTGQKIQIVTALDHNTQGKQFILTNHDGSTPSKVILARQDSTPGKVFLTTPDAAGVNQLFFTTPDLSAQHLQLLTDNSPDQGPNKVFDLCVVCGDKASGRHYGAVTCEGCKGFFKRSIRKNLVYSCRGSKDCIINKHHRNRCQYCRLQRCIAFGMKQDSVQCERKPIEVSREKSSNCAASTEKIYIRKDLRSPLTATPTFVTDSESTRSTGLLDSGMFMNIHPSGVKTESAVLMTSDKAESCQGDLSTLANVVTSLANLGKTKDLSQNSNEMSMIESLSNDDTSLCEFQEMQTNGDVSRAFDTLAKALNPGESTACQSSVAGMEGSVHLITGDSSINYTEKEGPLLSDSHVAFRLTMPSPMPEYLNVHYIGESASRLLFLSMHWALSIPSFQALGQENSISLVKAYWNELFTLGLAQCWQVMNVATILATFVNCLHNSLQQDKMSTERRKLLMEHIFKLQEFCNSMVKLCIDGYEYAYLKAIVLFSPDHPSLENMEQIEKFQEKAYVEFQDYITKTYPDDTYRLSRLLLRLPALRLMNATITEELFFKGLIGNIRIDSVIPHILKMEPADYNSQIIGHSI
UniProt P11940, whole entry: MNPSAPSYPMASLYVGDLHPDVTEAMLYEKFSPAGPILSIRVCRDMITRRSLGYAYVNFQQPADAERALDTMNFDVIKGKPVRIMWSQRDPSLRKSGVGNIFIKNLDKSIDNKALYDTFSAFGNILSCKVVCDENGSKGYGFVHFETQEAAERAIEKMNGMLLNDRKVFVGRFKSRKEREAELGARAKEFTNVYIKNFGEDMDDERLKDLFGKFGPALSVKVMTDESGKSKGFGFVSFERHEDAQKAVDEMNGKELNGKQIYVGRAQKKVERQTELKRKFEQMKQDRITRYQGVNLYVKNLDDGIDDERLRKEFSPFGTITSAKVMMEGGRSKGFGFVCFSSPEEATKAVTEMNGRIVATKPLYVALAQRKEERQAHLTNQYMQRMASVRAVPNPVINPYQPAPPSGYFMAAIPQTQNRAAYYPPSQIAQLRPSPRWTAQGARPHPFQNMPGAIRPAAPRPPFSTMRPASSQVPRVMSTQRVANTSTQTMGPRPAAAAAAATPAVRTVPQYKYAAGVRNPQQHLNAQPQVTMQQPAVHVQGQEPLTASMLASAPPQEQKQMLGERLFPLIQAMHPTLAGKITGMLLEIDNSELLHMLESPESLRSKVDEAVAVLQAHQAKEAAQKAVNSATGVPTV

Some of the results follow. Most entries show no effect beyond the scatter of the controls.

Compound in this test: Cc1nc(Nc2ncc(C(=O)Nc3c(C)cccc3Cl)s2)cc(N2CCN(CCO)CC2)n1 [dasatinib]
Briefly: log2 fold change of tryptic peptide abundance, ligand vs vehicle (limited proteolysis) (log2 ratio); higher = more trypsin-susceptible (destabilized). The conditions noted are these: ligand concentration: 5 uM; sample: K562 cleared lysate.
As to “UniProt P0DJJ0 (peptide sequence: FVQVSEDSGR, peptide start residue: 128)”, the log2 fold change came to 0.169.
Under “SMIM13 (peptide sequence: APADEGHRPLT, peptide start residue: 81) (UniProt P0DJ93)” stands 0.498.
Consider “UniProt P0DMV8 (peptide sequence: AQIHDLVLVGGSTR, peptide start residue: 329)”, for which the log2 fold change came to 0.125.
On to “S100A6 (peptide sequence: EGDKHTLSKK, peptide start residue: 23) (UniProt P06703)”, for which the log2 fold change stood at 0.738.
Under “LTF (peptide sequence: YYGYTGAFR, peptide start residue: 544) (UniProt P02788)” stands 0.265; under “ZBTB48 (peptide sequence: PHVCEFCSHAFTQK, peptide start residue: 464) (UniProt P10074)”, -0.461; under “CKM (peptide sequence: GIWHNDNK, peptide start residue: 216) (UniProt P06732)”, 0.0405.
Under “CKB (peptide sequence: VLTPELYAELR, peptide start residue: 33) (UniProt P12277)” stands -0.122.
On to “COL3A1 (peptide sequence: GESGPAGPAGAPGPAGSR, peptide start residue: 1065) (UniProt P02461)”, for which the log2 fold change came to 0.0584.
Under “LDHB (peptide sequence: VIGSGCNLDSAR, peptide start residue: 158) (UniProt P07195)” stands -0.129.
Regarding “UniProt P0CW24 (peptide sequence: AHLTEPLDEALR, peptide start residue: 293)”, the log2 fold change is -0.684.
For “CTSD (peptide sequence: QPGITFIAAK, peptide start residue: 185) (UniProt P07339)”, the log2 fold change worked out at 0.222.
On to “ACADM (peptide sequence: TRPVVAAGAVGLAQR, peptide start residue: 280) (UniProt P11310)”, for which the log2 fold change was 0.136.
With “PCNA (peptide sequence: DLSHIGDAVVISCAK, peptide start residue: 150) (UniProt P12004)”, the log2 fold change turned out to be 0.0913.
Turning to “UniProt P06576 (peptide sequence: VLDSGAPIKIPVGPETLGR, peptide start residue: 125)”, the log2 fold change is -0.11.
Under “NFIC (peptide sequence: AVKDELLGEKPEVK, peptide start residue: 56) (UniProt P08651)” stands 0.315.
Take “CISD3 (peptide sequence: MVALCTCK, peptide start residue: 94) (UniProt P0C7P0)”: the log2 fold change was -0.569.
“UniProt P0DMU8 (peptide sequence: ECDSPSYQK, peptide start residue: 21)”: the log2 fold change is 0.0929.
With “C0HKE1 (peptide sequence: HLQLAIRNDEELNKLLGR, peptide start residue: 83) (UniProt P04908)”, the log2 fold change stood at 0.248.
“FTH1 (peptide sequence: KMGAPESGLAEYLFDK, peptide start residue: 158) (UniProt P02794)”: the log2 fold change is -0.533.
Under “LMNA (peptide sequence: EAALSTALSEKR, peptide start residue: 145) (UniProt P02545)” stands -0.316; under “UniProt P04733 (peptide sequence: CAQGCVCK, peptide start residue: 44)”, 0.0674; under “SRP19 (peptide sequence: QEDGSLCLVQFPSRK, peptide start residue: 88) (UniProt P09132)”, 0.218.
In the case of “APRT (peptide sequence: ADSELQLVEQR, peptide start residue: 2) (UniProt P07741)”, the log2 fold change amounted to 0.0665.
Under “UniProt P04731 (peptide sequence: CAQGCICK, peptide start residue: 44)” stands 0.0197; under “NR2C1 (peptide sequence: QFILTNHDGSTPSK, peptide start residue: 43) (UniProt P13056)”, -0.127; under “UniProt P0C7V9 (peptide sequence: SQDRDFETMAK, peptide start residue: 60)”, 0.0388.
Under “PABPC1 (peptide sequence: AVDEMNGKELNGK, peptide start residue: 247) (UniProt P11940)” stands 0.103; under “HSPD1 (peptide sequence: VGGTSDVEVNEKK, peptide start residue: 406) (UniProt P10809)”, -0.0849.
